Experimental data published in the supplement of paper PMC5407854, “Inhibitor of ppGalNAc-T3-mediated O-glycosylation blocks cancer cell invasiveness and lowers FGF23 levels” (eLife, 2017).
The list shows a part of the results. Small differences around the control level are noise.

system: ppGalNAc-T2 sensor; assay: T2 sensor activation Q score (MG/GFP ratio z-score vs DMSO controls) (SD units); higher = more sensor activation (inhibition of ppGalNAc-T2 glycosylation); conditions: HEK293 sensor cells; 10 µM; 6 h
Method: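 Cells were treated with compound at 10 uM for 6 h, then MG/GFP ratio was read by flow cytometry (10,000 cells per well, duplicate wells). Q = (R - R_neg)/SD_neg relative to DMSO vehicle controls; the signal rises when the glycosyltransferase is inhibited.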

Structure (SMILES) | T2 sensor activation Q score
O=[N+]([O-])c1ccc(N2CCN(Cc3cc(F)ccc3F)CC2)cc1 | -0.035
CCc1ccc(CN2CCN(CC)CC2)cc1 | 0.36
COc1ccccc1N1CCN(Cc2ccc(C)cc2)CC1 | 0.345
Cc1ccc(CN2CCN(c3ccc(Cl)cc3)CC2)cc1 | -0.935
CCc1ccc(CN2CCN(C)CC2)cc1 | -0.81
COc1cccc(CN2CCN(Cc3ccccc3)CC2)c1 | -0.39
CN1CCN(c2ccc(Cl)cc2[N+](=O)[O-])CC1 | 1.58
O=C(NC(=O)c1c(F)cccc1F)Nc1ccc(Cl)cc1 | -0.875
CCc1ccc(C(=O)CCN(C)C)cc1 | -0.695
Fc1ccc(CN2CCN(c3ccccc3)CC2)c(F)c1 | -0.635
CN1CCN(Cc2cc(F)ccc2F)CC1 | -0.25
COc1cc(CN2CCN(Cc3ccccc3)CC2)cc(OC)c1 | -0.965
Fc1ccc(CN2CCN(c3ccccc3)CC2)cc1 | -0.89
O=[N+]([O-])c1ccc(CN2CCN(c3ccccc3)CC2)cc1 | -0.43
CCN1CCN(Cc2cccc(Cl)c2)CC1 | 0.55
COc1cccc(CN2CCN(c3ccccc3OC)CC2)c1 | -0.085
Cc1ccccc1N1CCN(Cc2ccc(Cl)cc2)CC1 | -0.27
COc1cccc(CN2CCN(c3ccc(F)cc3)CC2)c1 | -0.055
COc1ccc(CN2CCN(C)CC2)c(OC)c1C | 0.105
CCN1CCN(Cc2cc(OC)c(OC)cc2[N+](=O)[O-])CC1 | -0.775

Structure (SMILES) | T2 sensor activation Q score
CN1CCN(Cc2ccc([N+](=O)[O-])cc2)CC1 | 0.395
CCN1CCN(Cc2ccc(Cl)cc2)CC1 | 0.145
NCCc1nc2ccccc2[nH]1 | -0.065
COc1ccc(CN2CCN(C)CC2)cc1 | -0.03
COc1ccc(N2CCN(Cc3cccc(F)c3)CC2)cc1 | 0.36
COc1ccc(Br)cc1CN1CCN(c2ccccc2C)CC1 | 0
O=C(CN1CCCCC1)c1ccccc1 | -0.67
CCOc1cc(CN2CCN(c3ccccc3Cl)CC2)ccc1O | 0.125
COc1ccc(CN2CCN(c3ccccc3OC)CC2)cc1C | 0.15
Oc1ccc(CN2CCN(c3cccc(Cl)c3)CC2)cc1 | 0.11
COc1ccc(CC(N)=O)cc1OC | 0.405
Cc1ccc(CN2CCN(C)CC2)c(C)c1 | -0.15
COc1ccccc1N1C(=O)CC(=O)NC1=O | 0.015
c1ccc(N2CCN(Cc3cccs3)CC2)cc1 | -0.535
COc1ccccc1N1CCN(Cc2cc(F)ccc2F)CC1 | -0.955
O=c1c2ccccc2nc(/C=C\c2ccc(Cl)cc2)n1-c1ccccc1 | -0.475
CCOc1ccc(/C=C/[N+](=O)[O-])cc1 | -0.095
CCOc1ccccc1CN1CCN(c2ccc(Cl)cc2)CC1 | -0.245
CCN1CCN(Cc2ccc(C)cc2C)CC1 | -0.86
Cc1ccc(CNC(C)Cc2ccccc2)o1 (stereo not given) | 0.19

2 of the compounds above, as a markdown table:

| Structure (SMILES) | T2 sensor activation Q score |
| --- | --- |
| O=c1c2ccccc2nc(/C=C\c2ccc(Cl)cc2)n1-c1ccccc1 | -0.475 |
| CCOc1ccc(/C=C/[N+](=O)[O-])cc1 | -0.095 |
